# Laboratory results taken from patent publication US20160106708A1, “USE OF ANTIOXIDANTS FOR THE TREATMENT OF COGNITIVE AND BEHAVIOURAL DISORDERS IN INDIVIDUALS WITH FRAGILE X SYNDROME” (Servicio Andaluz de Salud, priority 2010, published 2016).
# Legend:
# FMR1-KO mice [1] = test: Raised cross-shaped maze (anxiety); details: mouse, in vivo
# Source text: FIG. 2. Percentage permanence time in the open arm of the raised cross-shaped maze in a 5-minute period of time for the different treatments.
# This test is used to determine the anxiety of the animal model, under baseline and treated conditions.
# FMR1-KO mice [2] = test: Reduced glutathione (GSH) in brain extract; assay type: in vivo, mouse
# Source text: FIG. 5. Concentration of GSH in mouse brain extract (μmol/g protein). FMR1-KO (n=8): black bars and WT (n=9): white bars. *p<0.05 FMR1-KO vs. WT. # p<0.05 FMR1-KO vs. FMR1-KO. † p<0.05 WT vs. WT.
# FMR1-KO mice [3] = test: Oxidised glutathione (GSSG, % of GSH) in brain extract; assay type: in vivo, mouse; details: WT mice, vs the rest of the groups
# Source text: FIG. 6. Percentage of GSSG with respect to GSH in mouse brain extract. FMR1-KO (n=8): black bars and WT (n=9): white bars. *p<0.05 FMR1-KO vs. WT. # p<0.05 FMR1-KO vs. FMR1-KO. † p<0.05 WT vs. WT.
smiles,measurement,setting,value
CN1c2ccccc2C(NCCCCCCC(=O)O)c2ccc(Cl)cc2S1(=O)=O (stereo not shown) [Tianeptine],Percentage permanence time in the open arm of the raised cross-shaped maze,FMR1-KO mice [1],greater (p<0.05)
same,GSH in brain extract,"FMR1-KO mice [2]; FMR1-KO mice, vs saline control",no significant differences
same,GSH in brain extract,"FMR1-KO mice [2]; WT mice, vs the rest of groups of treated animals",a decrease in the value of GSH
same,Percentage of GSSG with respect to GSH in brain extract,FMR1-KO mice [3],higher percentage
